Among all 53,000 sequences or so, about 3,700 (7%) were called active.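 The calls were made as follows: active = gene knockdowns whose robust z-score for IL-1 alpha signal is at least 2 or at most -2, so actives lie on both sides; inactive = the rest.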 This is one part of the list.

This test is described as follows: Components of the Cytosolic LPS Sensing Pathway: Gene Identification via Genome-wide siRNA Screen.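 Also: robust z of the log signal after scaling to non-targeting control siRNA wells of the plate.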 The following applies: RAW264.7 macrophages, IL-1a HTRF, actives lie on both sides, screened at 100 nM (by protocol), cells primed 5 h with Pam3CSK4 first. A digest of the protocol: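 Knockdown: 100 nM siRNA, 48h, RAW264.7. Stimulation: Pam3CSK4 5 h, then LipidA via TransIT-TKO 24 h. Output: supernatant IL-1a HTRF, negative-control-normalized, log robust z-score; viability by CellTiter-Glo.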
For orientation: Time-resolved FRET reads energy transfer from a long-lived donor to a nearby acceptor.
In the case of GCAUAAGAAGCAACGUGUGTT against Strn4, the z-score is inactive: 0.7.

Take GGAGCGAGAUACUCCUAAATT against Epha6: the z-score is inactive: -0.308.

Turning to GGUCAAUGGAGUAGAUUUATT against Pard3, the z-score was active: 2.24.

Consider CACGACCUAGGUGUGACCATT against Arrdc2, for which the z-score is active: -2.31.

With CCCUCGAGUGAUCAUUUUGTT against Opcml, the z-score is inactive: -0.524.

Take GGCUAUGGAGCACUCACAATT against Pot1b: the z-score is inactive: -0.177.

As for GCUAGCAAGUGAGAUGGAGTT against Mbd3l1, the z-score is inactive: 1.58.

As for GCUAUGACGAUUUCCGUUCTT against Arhgap33, the z-score was inactive: 0.915.

In the case of GGUUGACAUCGACCAAUCATT against Klhl1, the z-score is inactive: -1.36.

As for GCCUACAAGCCAUGAACAATT against Mybbp1a, the z-score was inactive: 1.27.

On to GCCUCAGCAUUACCACUAUTT against Pof1b, for which the z-score is inactive: -1.86.

As to GGUUGUAUGUUGUGUGUUUTT against Cyrib, the z-score was active: 2.36.

Turning to GUCCCAACUCCGCUUUGUUTT against Vmn1r38, the z-score is inactive: 1.01.

As to GGAGACUUCAGUGCCUCUUTT against Slc16a11, the z-score is active: 2.45.

Consider GGAUUACACACCUACGAUCTT against Taf10, for which the z-score was inactive: -1.63.

As for GGCCAGAGAAGAUUACUUUTT against Ajuba, the z-score was inactive: 1.03.

As for GGUAUUAUGACUGUAAAGGTT against Endou, the z-score is inactive: 0.0412.

Take CCAAUUUUACCUGACUUCGTT against Enox2: the z-score was inactive: -0.222.

Take GCUGUCUUUUAUGCAAGCATT against Klf9: the z-score is inactive: 0.466.

Consider GGGCCAAACCCAGAACUAUTT against Sema4g, for which the z-score was inactive: 1.5.

Take GGCCGAUUGUGAUGAAUUCTT against Depdc1b: the z-score was inactive: 0.753.

With GCCAUAUGGUGAAGUCCUATT against Suz12, the z-score was inactive: 0.117.

GCCUGGAUUUAAUUUAUGGTT against Sv2a: the z-score is inactive: -0.3.

Regarding GGGACUGUCCUUUUUGAAATT against Unc119, the z-score was inactive: -0.487.

Take GGUUGUGACCGCCAUUUCUTT against Adpgk: the z-score was inactive: 1.49.

For GGCUAAACACAGAAAGGUCTT against Ccdc40, the z-score is inactive: 0.172.

Turning to GAUUAAUAGUGGUUUCUGATT against Olfr1219, the z-score is inactive: -0.219.

GCCUUCUGAUAACCUACUATT against Mefv: the z-score is inactive: -1.87.

Turning to GGAAUUGAACGUAGUAGAGTT against Ciao2b, the z-score is inactive: 0.267.

For GGUGUUUGGCUACCAUACCTT against Atp13a5, the z-score was inactive: -0.271.

Take GGGAUGGAAGACGUACAGATT against Alox12e: the z-score was inactive: 0.673.

Turning to GGGAUACCAUUAAUUAAAGTT against Armh4, the z-score was inactive: -1.2.

Turning to UACCCUAGGUCGACUCUCATT against Fcmr, the z-score is inactive: -1.48.

As for GGACUUGUUAUGGCCAUGCTT against Olfr1389, the z-score was inactive: 0.284.

For the sequence GGAGGAAGACAUUGUGUGUTT against Tnfrsf11b, the z-score is inactive: -0.309.

For the sequence GCACCAGUUACAGAAUGGATT against Zkscan8, the z-score is inactive: 0.873.

In the case of GGGCAAUGUGUUUAUGUAUTT against Tmem30a, the z-score is inactive: -0.264.

As to GGUAAACCUUUCUACCUUATT against Cxcr2, the z-score was inactive: 0.675.

For GGACUUUGAUAUCAAAGAGTT against Serpina10, the z-score is inactive: -0.778.

As to CCUACCCUAACCAUUACACTT against Enpp5, the z-score is inactive: -0.267.

Take GGUUUAUAUCCGUACACCUTT against Sp2: the z-score is inactive: 1.97.

As to GGAAUUUGGAGCCGACUGCTT against Mdk, the z-score is inactive: -1.38.

CCUAUGAGAAAUGCUGCCCTT against Wfikkn2: the z-score is inactive: 0.637.

As to CGUUCAACAACAGAGAAAATT against Scnn1g, the z-score was inactive: -0.305.

GCAUGUGACCUCGUCUUGCTT against Apbb2: the z-score was inactive: -1.04.

Regarding GGAUAUUGUCUUUGUAGAATT against Kap, the z-score was inactive: -0.565.

With GAGUGGAACCAGAUUCCUCTT against AY074887, the z-score was inactive: -0.4.

With GGAUUUUUGCCAGUUAGUATT against Nus1, the z-score was inactive: 0.501.

As for CCUGACUUCCCGCUAUGAGTT against Ip6k2, the z-score was inactive: 0.56.

For GGAGAUUCAGUUCUUCAAUTT against Ndst2, the z-score is inactive: 1.1.

As to GGCUCAUAAACGACAAAGGTT against Cxcl11, the z-score is inactive: -1.42.

As for GGUCAAAUCUCAGAUGAAGTT against Kcnab1, the z-score was inactive: 0.917.

For the sequence GCCGAUCCAUUUUUGGCUCTT against Mlxip, the z-score was inactive: 0.86.

On to GGAGUUUGAAGACUUUUUGTT against Pstpip2, for which the z-score is inactive: 0.24.

Regarding GGCAUGUGAAAUGUAUACCTT against Napb, the z-score is inactive: 1.25.

Take GGUCACCUCUGCUAACAUCTT against Bpifb1: the z-score was inactive: -0.765.

In the case of GAAGGAAGAAUAUUGGCCCTT against Il17rd, the z-score is inactive: -1.88.

Take GGCUUCUGGUACAUUAUUGTT against Lcn10: the z-score is inactive: -1.23.

For GCUGUAUUGAAGGUCCCUUTT against Olfr744, the z-score is inactive: 0.263.

Take CCAUCUACCAUAAACUGUATT against Spata6: the z-score is inactive: 0.175.

Take GGUAGCUGAAGAUGGAGAGTT against Abcc10: the z-score was inactive: 0.965.

Regarding GGAGUUAGAAACUCAUUUUTT against Ppargc1b, the z-score was inactive: 1.5.

CCAAGCAUUAUGAGAUGCUTT against Sec23b: the z-score was inactive: 0.749.

As to GGCAGACAUUGCAUUUCUCTT against Coch, the z-score was inactive: -0.654.

Consider GGCUGUUCGUAAUAACCGCTT against Nup85, for which the z-score is inactive: -0.554.

Consider GGAGUUCUUUUAUGAUAUCTT against Rph3a, for which the z-score is inactive: 0.276.

On to CCACAGUGGAUUGAUUGUATT against Nlrp4c, for which the z-score was inactive: -1.5.

Consider GGUCUUCCUGUCUGAAAUATT against Dock7, for which the z-score was inactive: 1.82.

On to GCUUCUAUUGCCAACAUUGTT against Tcp1, for which the z-score was inactive: 0.247.

Turning to CCCGGGUUGGGUGUACAUUTT against Sds, the z-score is active: 3.62.

For the sequence CCAGUUGACAGGUUUGAUCTT against Habp4, the z-score is inactive: -0.255.

In the case of GGCUCUAGGAUUCAAAUAUTT against Grid1, the z-score is inactive: 1.21.

As to “GGCAACUAACAGGAAAAAGTT against 4430402I18Rik”, the z-score is inactive: -0.896.

On to GGAAACACAAGUUCUAGGUTT against Gpx3, for which the z-score was inactive: 0.735.

As for CCAUGUUUUUAUAGCUCUUTT against Sidt2, the z-score was inactive: 1.49.

Regarding GGGAAAUGUGUGUUAUCUGTT against Rnf126, the z-score is inactive: 1.41.

Regarding GCUCCAUCAGCAAUACAAATT against Kdm1a, the z-score is inactive: 1.51.

On to GGUGCUUUGUAAACUGUCUTT against Slc26a11, for which the z-score was active: -2.99.

GGUGCUAAGCUAGACAUUCTT against Mib1: the z-score was inactive: -0.161.

On to GCUCUCUACGAUGAGGUCATT against Dera, for which the z-score is inactive: 0.42.

For GCCCAACUAAGCAAUAAUATT against Fam216b, the z-score is inactive: 0.395.

Consider GCUGUUUCCUGAACAAUUCTT against Tram1, for which the z-score is inactive: -1.31.

For the sequence GGAUGCAGUUCAUGACAAUTT against Ythdf1, the z-score was inactive: -1.17.

Turning to GGACAUGAUCAAUGAAGUATT against Calm2, the z-score is inactive: -1.37.

As to CGUUGGUCUUCACUGAUAATT against Frem2, the z-score was inactive: 0.558.

GGCCAUUUUAAAUGGGUCATT against Stx16: the z-score was inactive: -1.44.

As for GCCCUAAAUCCUUUUAUUATT against Trpc7, the z-score was active: 2.78.

Take GGAGCACUUGUGGAUCAAUTT against Efhd1: the z-score is inactive: 1.03.

As to GGAGGUUUCCUUAGGCAAATT against Drd5, the z-score was inactive: 1.23.

On to CCUUGACAGGACUAUAUUUTT against Pter, for which the z-score was inactive: -0.452.

Turning to GGAAAAACAUUCAAGACUCTT against Cenpk, the z-score was inactive: -0.0252.

As to GGAGCAGAAUGGAGUGCAGTT against Slc6a3, the z-score is inactive: 1.69.

With GGCUGAACAGGCAUGAUCATT against Rpap1, the z-score was active: -3.

Consider GGCACAAUUGAUCCUUUUUTT against Syt17, for which the z-score was inactive: -0.0431.

Consider GGAGGUGUCGGGAUAUCAATT against Ptprm, for which the z-score is inactive: -0.248.

Consider GUUGAUGGAAACCAUGGAATT against Phf11d, for which the z-score was inactive: -0.504.

In the case of CGAUGUUUUCAUGAACGACTT against Tctex1d2, the z-score was inactive: 0.738.

Consider GGGUUAGGAUACCUCGACUTT against Arnt2, for which the z-score was active: -2.5.

As to GGCUGUGGUUGUAUCAUGATT against Scgb2b24, the z-score is inactive: -0.13.

With GCAAGAAUCUGCUCUUAGUTT against Tmem164, the z-score was inactive: -0.019.

As to GGGAUCAGACUGUAUAGACTT against Chchd4, the z-score was inactive: 1.07.

For the sequence GGAUGACCAAAAGGACAAUTT against Galp, the z-score is inactive: 1.09.

For GGCAUUUAGCCAAAAGUUCTT against Zfp169, the z-score is inactive: 0.608.

As to GGUUAUGAAACUGAGAAAGTT against Mid2, the z-score is inactive: -0.0195.

For CCAGAGCUACCAAAGUCUATT against Krt39, the z-score is inactive: -0.625.

GGAAACAAAUGAGUGCCUGTT against Bloc1s5: the z-score is active: 2.02.

In the case of CCAGAGAAAUAUCGACAAGTT against Rasgrf1, the z-score was inactive: 0.00204.

In the case of GGAAGAAGCCUUUUGAGUGTT against Peg3, the z-score was inactive: 1.39.

The record behind these values is PubChem BioAssay AID1508600 (Functional Genomics Laboratory (NCATS/FGL), 2020).
